Measurements taken from the supplement of paper PMC6078165.

Tested on: MDAMB468
Experiment: relative JC-1 red fluorescence (viability) vs pre-drug, coculture with fibroblast (fraction); higher = more viable cancer cells
Method: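 JC-1 labelled TNBC cells cocultured 1:1 (1,500 cells each) with CellTrace Violet stained primary or stromal fibroblasts in 384-well plates in FluoroBrite medium, treated with one of 42 anticancer drugs at 0.1, 1, 10 or 100 uM. JC-1 red fluorescence (mitochondrial integrity in cancer cells only) was read by plate reader every 8 h for 72 h. Values are normalised to each well's pre-drug value. The stock of one drug was tenfold lower, so its dose labels may be too high.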

O=C(O)C(=O)O.[NH-][C@@H]1CCCC[C@H]1[NH-].[Pt+2] [Oxaliplatin]
relative JC-1 red fluorescence
Details | 8 h | 16 h | 24 h | 32 h | 40 h | 48 h | 56 h | 64 h | 72 h
0.1 µM, coculture fibroblast: C12385 | 0.873 | 0.879 | 0.899 | 0.8854 | 0.874 | 0.9168 | 0.901 | 0.915 | 0.93
0.1 µM, coculture fibroblast: H6013 | 0.8696 | 0.868 | 0.842 | 0.822 | 0.8161 | 0.844 | 0.832 | 0.84 | 0.784
0.1 µM, coculture fibroblast: H6019 | 0.848 | 0.845 | 0.85 | 0.837 | 0.82 | 0.844 | 0.8058 | 0.7897 | 0.775
0.1 µM, coculture fibroblast: H6076 | 0.9123 | 0.957 | 0.888 | 0.886 | 0.828 | 0.835 | 0.81 | 0.804 | 0.829
0.1 µM, coculture fibroblast: H6231 | 0.801 | 0.913 | 0.854 | 0.858 | 0.808 | 0.788 | 0.735 | 0.708 | 0.706
0.1 µM, coculture fibroblast: HADF | 0.881 | 0.882 | 0.844 | 0.846 | 0.8184 | 0.832 | 0.81 | 0.83 | 0.7899
0.1 µM, coculture fibroblast: HCFa | 0.8714 | 0.873 | 0.821 | 0.792 | 0.762 | 0.772 | 0.742 | 0.71 | 0.659
0.1 µM, coculture fibroblast: HCPF | 0.8428 | 0.921 | 0.848 | 0.846 | 0.7823 | 0.761 | 0.71 | 0.709 | 0.702
0.1 µM, coculture fibroblast: HHSteC | 0.894 | 0.8663 | 0.843 | 0.818 | 0.796 | 0.813 | 0.761 | 0.75 | 0.7
0.1 µM, coculture fibroblast: HMF | 0.8222 | 0.9 | 0.844 | 0.835 | 0.782 | 0.773 | 0.739 | 0.73659 | 0.747
0.1 µM, coculture fibroblast: HPFa | 0.909 | 0.876 | 0.84 | 0.776 | 0.76 | 0.769 | 0.713 | 0.696 | 0.623
0.1 µM, coculture fibroblast: HUF | 0.886 | 0.84 | 0.827 | 0.783 | 0.762 | 0.766 | 0.744 | 0.752 | 0.749
0.1 µM, coculture fibroblast: Hs5 | 0.835 | 0.9801 | 0.9505 | 0.9371 | 0.8833 | 0.8716 | 0.842 | 0.818 | 0.848
0.1 µM, coculture fibroblast: Hs27A | 0.854 | 0.869 | 0.818 | 0.81 | 0.793 | 0.805 | 0.781 | 0.766 | 0.725
0.1 µM, coculture fibroblast: Hs343T | 0.871 | 0.953 | 0.91 | 0.889 | 0.812 | 0.796 | 0.763 | 0.75 | 0.75
0.1 µM, coculture fibroblast: WS1 | 0.858 | 0.815 | 0.805 | 0.773 | 0.749 | 0.751 | 0.749 | 0.75 | 0.77
1 µM, coculture fibroblast: C12385 | 0.8879 | 0.7997 | 0.7511 | 0.6845 | 0.6346 | 0.6109 | 0.5698 | 0.537 | 0.51641
1 µM, coculture fibroblast: H6013 | 0.8935 | 0.836 | 0.782 | 0.777 | 0.742 | 0.745 | 0.719 | 0.704 | 0.659
1 µM, coculture fibroblast: H6019 | 0.837 | 0.797 | 0.769 | 0.726 | 0.701 | 0.688 | 0.652 | 0.629 | 0.602
1 µM, coculture fibroblast: H6076 | 0.9572 | 0.962 | 0.906 | 0.917 | 0.856 | 0.841 | 0.802 | 0.786 | 0.83
1 µM, coculture fibroblast: H6231 | 0.855 | 0.935 | 0.923 | 0.885 | 0.856 | 0.831 | 0.775 | 0.75 | 0.734
1 µM, coculture fibroblast: HADF | 0.882 | 0.819 | 0.768 | 0.748 | 0.693 | 0.683 | 0.641 | 0.625 | 0.583
1 µM, coculture fibroblast: HCFa | 0.883 | 0.824 | 0.774 | 0.757 | 0.7 | 0.699 | 0.649 | 0.614 | 0.5659
1 µM, coculture fibroblast: HCPF | 0.88197 | 0.975 | 0.871 | 0.845 | 0.794 | 0.762 | 0.71 | 0.684 | 0.667
1 µM, coculture fibroblast: HHSteC | 0.9274 | 0.855 | 0.81 | 0.781 | 0.734 | 0.718 | 0.666 | 0.638 | 0.584
1 µM, coculture fibroblast: HMF | 0.858 | 0.97476 | 0.8781 | 0.844 | 0.778 | 0.755 | 0.699 | 0.671 | 0.649
1 µM, coculture fibroblast: HPFa | 0.91 | 0.8329 | 0.79 | 0.755 | 0.7004 | 0.6951 | 0.637 | 0.601 | 0.539
1 µM, coculture fibroblast: HUF | 0.929 | 0.841 | 0.787 | 0.731 | 0.683 | 0.666 | 0.628 | 0.619 | 0.606
1 µM, coculture fibroblast: Hs5 | 0.825 | 0.949 | 0.893 | 0.866 | 0.8 | 0.768 | 0.727 | 0.688 | 0.707
1 µM, coculture fibroblast: Hs27A | 0.8448 | 0.77 | 0.722 | 0.713 | 0.642 | 0.634 | 0.59 | 0.55896 | 0.5248
1 µM, coculture fibroblast: Hs343T | 0.881 | 0.912 | 0.863 | 0.839 | 0.79 | 0.772 | 0.713 | 0.7 | 0.686
1 µM, coculture fibroblast: WS1 | 0.887 | 0.795 | 0.748 | 0.688 | 0.65 | 0.607 | 0.587 | 0.558 | 0.553
10 µM, coculture fibroblast: C12385 | 0.8509 | 0.8018 | 0.766 | 0.716 | 0.66 | 0.648 | 0.6133 | 0.582 | 0.564
10 µM, coculture fibroblast: H6013 | 0.8686 | 0.86 | 0.8032 | 0.7902 | 0.77 | 0.782 | 0.756 | 0.748 | 0.698
10 µM, coculture fibroblast: H6019 | 0.861 | 0.849 | 0.831 | 0.807 | 0.784 | 0.772 | 0.729 | 0.694 | 0.672
10 µM, coculture fibroblast: H6076 | 0.905 | 0.945 | 0.906 | 0.905 | 0.85 | 0.831 | 0.803 | 0.791 | 0.813
10 µM, coculture fibroblast: H6231 | 0.861 | 0.919 | 0.893 | 0.887 | 0.826 | 0.809 | 0.76 | 0.73 | 0.734
10 µM, coculture fibroblast: HADF | 0.855 | 0.798 | 0.742 | 0.719 | 0.667 | 0.66 | 0.624 | 0.603 | 0.554
10 µM, coculture fibroblast: HCFa | 0.845 | 0.816 | 0.746 | 0.708 | 0.64 | 0.63 | 0.5784 | 0.541 | 0.502
10 µM, coculture fibroblast: HCPF | 0.839 | 0.9592 | 0.8796 | 0.853 | 0.809 | 0.78287 | 0.7386 | 0.733 | 0.723
10 µM, coculture fibroblast: HHSteC | 0.867 | 0.8381 | 0.7733 | 0.737 | 0.692 | 0.683 | 0.627 | 0.601 | 0.556
10 µM, coculture fibroblast: HMF | 0.802 | 0.967 | 0.87 | 0.826 | 0.769 | 0.744 | 0.686 | 0.676 | 0.652
10 µM, coculture fibroblast: HPFa | 0.926 | 0.897 | 0.844 | 0.786 | 0.757 | 0.75 | 0.694 | 0.675 | 0.607
10 µM, coculture fibroblast: HUF | 0.881 | 0.809 | 0.768 | 0.724 | 0.683 | 0.676 | 0.633 | 0.613 | 0.595
10 µM, coculture fibroblast: Hs5 | 0.978 | 0.967 | 0.887 | 0.865 | 0.813 | 0.792 | 0.77 | 0.737 | 0.755
10 µM, coculture fibroblast: Hs27A | 0.86494 | 0.827 | 0.751 | 0.74 | 0.678 | 0.677 | 0.653 | 0.632 | 0.6
10 µM, coculture fibroblast: Hs343T | 0.857 | 0.9783 | 0.896 | 0.845 | 0.766 | 0.741 | 0.703 | 0.685 | 0.65
10 µM, coculture fibroblast: WS1 | 0.835 | 0.743 | 0.672 | 0.631 | 0.582 | 0.544 | 0.513 | 0.481 | 0.459
100 µM, coculture fibroblast: C12385 | 0.8779 | 0.679 | 0.61 | 0.5528 | 0.491 | 0.47 | 0.4298 | 0.403 | 0.3874
100 µM, coculture fibroblast: H6013 | 0.873 | 0.748 | 0.669 | 0.62 | 0.601 | 0.597 | 0.551 | 0.527 | 0.461
100 µM, coculture fibroblast: H6019 | 0.828 | 0.7134 | 0.6248 | 0.53 | 0.4659 | 0.43 | 0.384 | 0.357 | 0.34
100 µM, coculture fibroblast: H6076 | 0.96 | 0.885 | 0.942 | 0.845 | 0.921 | 0.927 | 0.896 | 0.887 | 0.951
100 µM, coculture fibroblast: H6231 | 0.897 | 0.939 | 0.882 | 0.876 | 0.786 | 0.771 | 0.733 | 0.715 | 0.728
100 µM, coculture fibroblast: HADF | 0.932 | 0.775 | 0.716 | 0.678 | 0.636 | 0.614 | 0.563 | 0.543 | 0.48
100 µM, coculture fibroblast: HCFa | 0.911 | 0.7893 | 0.719 | 0.654 | 0.589 | 0.577 | 0.528 | 0.499 | 0.432
100 µM, coculture fibroblast: HCPF | 0.879 | 0.818 | 0.927 | 0.91 | 0.839 | 0.817 | 0.77 | 0.762 | 0.752
100 µM, coculture fibroblast: HHSteC | 0.922 | 0.862 | 0.816 | 0.764 | 0.726 | 0.726 | 0.647 | 0.627 | 0.553
100 µM, coculture fibroblast: HMF | 0.883 | 0.804 | 0.924 | 0.898 | 0.838 | 0.823 | 0.765 | 0.749 | 0.73
100 µM, coculture fibroblast: HPFa | 0.973 | 0.8158 | 0.7877 | 0.68911 | 0.656 | 0.653 | 0.591 | 0.56 | 0.49
100 µM, coculture fibroblast: HUF | 0.958 | 0.821 | 0.754 | 0.71 | 0.65 | 0.641 | 0.584 | 0.575 | 0.562
100 µM, coculture fibroblast: Hs5 | 0.88 | 0.881 | 0.837 | 0.821 | 0.732 | 0.715 | 0.7 | 0.674 | 0.717
100 µM, coculture fibroblast: Hs27A | 0.891 | 0.764 | 0.715 | 0.691 | 0.628 | 0.611 | 0.582 | 0.566 | 0.495
100 µM, coculture fibroblast: Hs343T | 0.899 | 0.918 | 0.976 | 0.956 | 0.888 | 0.88 | 0.834 | 0.827 | 0.8223
100 µM, coculture fibroblast: WS1 | 0.8624 | 0.631 | 0.5249 | 0.431 | 0.374 | 0.341 | 0.312 | 0.29 | 0.282

The reference is the same well before dosing, and untreated signal decays as well.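 Labels refer to human fibroblasts, largely primary: uterine (C12385, HUF), lung (H6013), bone (Hs27A), adrenal (HADF), skin (WS1), plus mammary HMF and breast cancer-associated Hs343T. Cancer lines are basal-like or mesenchymal-like triple-negative breast cancer. The paper counts as hits responses shifting over 3x the replicate standard deviation. The tissue of the other fibroblasts is not given here.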
